In PubChem BioAssay AID651768 (National Center for Advancing Translational Sciences (NCATS), 2012):
Hit rate of the full screen: of about 360,000 compounds, about 1,700 (0.47%) were called active. Inconclusive means that the source gave no clear call. Such entries were picked first, then a sample of the others. The call rests on the fitted dose curve; in most records, active means well fitted inhibition curve with a large enough effect; inconclusive means small, poorly fitted or top-dose-only effect; inactive means no such curve, though single readings can be large or run the other way. Potencies of inconclusive entries are doubtful fits and often do not repeat.
Further: nearly all actives have a fitted effect of over 55% in size.
On the % scale 0 is the no-effect control and ±100 the full control effect; potency means the concentration at half of the fitted maximal effect.

By UniProt entry, the sequences of proteins in these tests, tags left out.
UniProt Q14191, whole entry, looked up: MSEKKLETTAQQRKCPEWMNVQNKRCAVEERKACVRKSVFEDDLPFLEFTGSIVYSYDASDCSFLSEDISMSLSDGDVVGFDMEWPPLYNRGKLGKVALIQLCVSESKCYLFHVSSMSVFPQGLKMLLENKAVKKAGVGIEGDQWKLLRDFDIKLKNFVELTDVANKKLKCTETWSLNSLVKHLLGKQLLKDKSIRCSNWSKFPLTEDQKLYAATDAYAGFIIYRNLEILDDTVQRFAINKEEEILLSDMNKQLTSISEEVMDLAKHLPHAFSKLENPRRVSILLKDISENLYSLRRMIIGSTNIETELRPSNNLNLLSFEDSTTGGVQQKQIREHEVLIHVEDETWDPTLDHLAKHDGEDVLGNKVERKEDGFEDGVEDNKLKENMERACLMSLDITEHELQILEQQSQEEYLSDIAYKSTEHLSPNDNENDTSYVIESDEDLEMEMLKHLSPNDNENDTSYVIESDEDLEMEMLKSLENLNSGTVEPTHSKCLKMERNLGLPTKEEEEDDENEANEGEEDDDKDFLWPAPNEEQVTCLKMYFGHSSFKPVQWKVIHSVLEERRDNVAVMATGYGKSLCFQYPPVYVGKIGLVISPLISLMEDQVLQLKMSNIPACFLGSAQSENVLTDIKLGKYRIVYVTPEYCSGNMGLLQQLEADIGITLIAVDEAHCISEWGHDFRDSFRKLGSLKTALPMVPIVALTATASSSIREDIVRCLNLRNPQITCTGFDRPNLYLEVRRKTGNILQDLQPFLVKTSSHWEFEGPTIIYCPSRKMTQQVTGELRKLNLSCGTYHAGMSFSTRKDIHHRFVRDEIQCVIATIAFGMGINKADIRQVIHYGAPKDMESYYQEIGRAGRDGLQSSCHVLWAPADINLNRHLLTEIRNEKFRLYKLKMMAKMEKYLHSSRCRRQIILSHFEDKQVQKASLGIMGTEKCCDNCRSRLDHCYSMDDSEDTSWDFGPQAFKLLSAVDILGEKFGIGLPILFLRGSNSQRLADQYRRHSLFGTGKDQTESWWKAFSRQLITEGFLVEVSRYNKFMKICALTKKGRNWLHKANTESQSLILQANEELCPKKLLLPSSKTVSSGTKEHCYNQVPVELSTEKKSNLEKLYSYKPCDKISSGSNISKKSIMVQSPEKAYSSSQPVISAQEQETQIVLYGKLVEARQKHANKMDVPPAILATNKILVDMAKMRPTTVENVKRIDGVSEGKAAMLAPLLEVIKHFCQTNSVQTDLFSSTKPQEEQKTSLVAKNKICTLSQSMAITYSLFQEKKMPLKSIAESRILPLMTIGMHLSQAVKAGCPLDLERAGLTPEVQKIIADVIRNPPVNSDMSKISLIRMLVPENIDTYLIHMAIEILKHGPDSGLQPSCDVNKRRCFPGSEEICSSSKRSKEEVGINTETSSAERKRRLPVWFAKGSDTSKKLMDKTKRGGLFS

The compounds below were run against Bifunctional 3'-5' exonuclease/ATP-dependent helicase WRN (Homo sapiens) (UniProt Q14191) (assay: qHTS for Inhibitors of WRN Helicase). Conditions: WRN helicase unwinding, fluorescent forked duplex, kinetic; activity change, negative = inhibition: at 114 µM (top of the series) unless noted.
Procedure, shortened: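 Enzyme (20 nM final) and test compound sit together 15 min at room temperature before substrate addition. Substrate is a single-forked duplex oligonucleotide (100 nM) labelled with fluorophore and quencher, with 2 mM ATP; helicase unwinding raises red fluorescence, read kinetically.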
With `CCOC(=O)C(=O)NCc1ccc(/C=C2/N=C(C)C(C(=O)OCC)=C2O)o1` the Potency was “inactive”.
`COc1ccc(-n2cccc2/C=C/[N+](=O)[O-])cc1` was tested, and the Potency was “inactive”.
With `O=C(/C=C/c1ccco1)N(c1ccccn1)c1ccccn1` the Potency was active: 50.1 µM.
With `O=S(=O)(O)c1cc(O)c2cc(Nc3ccccc3)ccc2c1` the Potency was active: 11.2 µM.
In the case of `CC(=O)Oc1ccc(C(=O)c2ccccc2)c(OC(C)=O)c1`, the Potency is reported as inconclusive: 31.6 µM [inhibitor, single point].
With `CCC(C)Cn1c(O)cc2nn(-c3nc4ccccc4s3)c(=O)c-2c1C` (stereo not given) the Potency was inconclusive: 50.1 µM [inhibitor, partial curve].
`O=C(CC1SC(=O)N(c2ccccc2)C1=O)Nc1cccc2ccccc12` (stereo not given) was tested, and the Potency was inconclusive: 56.2 µM [inhibitor, partial curve].
In the case of `CCOC(=O)C1=C(C)NC(C)=C(C(=O)OCC)C1C(=O)OCC(=O)Nc1ccc(NC(C)=O)cc1`, the Potency is reported as “inactive”.
For `CC(=O)c1cccc(S(=O)(=O)NC(C)C2CC3CCC2C3)c1` (stereo not given), the Potency was inconclusive: 70.8 µM [inhibitor, partial curve].
`N#C/C(=C/c1ccc(-c2ccc([N+](=O)[O-])cc2)o1)C(=O)Nc1nc(-c2cccs2)cs1` was tested, and the Potency was inconclusive: 3.55 µM [inhibitor, full curve, poor fit].
In the case of `CC(=O)Nc1cccc(NC(=O)CSc2ncc(C(=O)Nc3ccc(F)cc3)c(=O)n2C)c1`, the Potency is reported as inconclusive: 44.7 µM [inhibitor, partial curve].
For `O=C(O)c1ccc(COc2ccccc2/C=C2/NC(=O)N(c3cccc(Cl)c3)C2=O)cc1`, the Potency was inconclusive: 63.1 µM [inhibitor, partial curve, poor fit].
`O=C(Nc1ccc2c(c1)CCC2)c1cccc(S(=O)(=O)Nc2ccccc2Cl)c1` was tested, and the Potency was inconclusive: 79.4 µM [inhibitor, partial curve].
With `O=C(/C=C/c1ccccc1Cl)NC1CCS(=O)(=O)C1` (stereo not given) the Potency was inconclusive: 89.1 µM [inhibitor, single point].
With `CCN(CC)c1ccc(/C=C2/SC(=O)N(C(C)C)C2=O)o1` the Potency was “inactive”.
In the case of `COc1cc(NC(=O)c2cccc(C)c2)c(OC)cc1NC(=O)CN1CCCCC1`, the Potency is reported as inconclusive: 31.6 µM [inhibitor, single point].
In the case of `Cc1cc(C(=O)OCC(=O)Nc2c(F)cccc2F)c(C)n1-c1ccccc1`, the Potency is reported as inconclusive: 39.8 µM [inhibitor, single point].
With `O=C(CNC(=O)c1ccccc1)Oc1ccc([N+](=O)[O-])cc1` the Potency was inconclusive: 89.1 µM [inhibitor, single point].
With `C=CCn1c(C)cc(C(=O)CN2C(=O)c3ccccc3S2(=O)=O)c1C` the Potency was inconclusive: 25.1 µM [inhibitor, single point].
With `CN(C)c1cc[n+](CC(=O)c2ccc(Br)cc2)cc1` the Potency was inconclusive: 89.1 µM [inhibitor, single point].
`Cc1nc2scc(-c3ccccc3)c2c(=O)n1N=C1C=CC(=O)C=C1` was tested, and the Potency was inconclusive: 25.1 µM [inhibitor, single point].
In the case of `NC(=O)c1ccc(NC(=O)COC(=O)c2ccc(Br)c(S(=O)(=O)N3CCOCC3)c2)cc1`, the Potency is reported as inconclusive: 17.8 µM [inhibitor, single point].
With `COc1ccccc1NS(=O)(=O)c1cc(NC(=O)c2cc[n+]([O-])cc2)ccc1N1CCCC1` the Potency was inconclusive: 44.7 µM [inhibitor, partial curve].
`Cn1cc(/C=C2\SC(=S)N(NC(=O)c3ccccc3)C2=O)c2ccccc21` was tested, and the Potency was “inactive”.
For `CCCc1cc(=O)[nH]c(SCC(=O)Nc2sccc2C#N)n1`, the Potency was inconclusive: 39.8 µM [inhibitor, full curve, poor fit].
In the case of `CCCC(C)c1nnc(NC(=O)CN2C(=O)c3ccccc3C2=O)s1` (stereo not given), the Potency is reported as “inactive”.
With `O=C(Cc1ccc(Cl)cc1)Nc1ccc(NC(=O)c2cccs2)cc1` the Potency was inconclusive: 25.1 µM [inhibitor, single point].
In the case of `CC1CCN(S(=O)(=O)c2ccc3c(c2)N(CC(=O)NCc2cccnc2)C(=O)CS3)CC1`, the Potency is reported as “inactive”.
For `COc1cc(O)oc1C=Nc1ccc(C(=O)O)cc1`, the Potency was inconclusive: 39.8 µM [inhibitor, single point].
For `COc1ccc(CCNC(=O)C2CC(c3cccc(F)c3)=NO2)cc1` (stereo not given), the Potency was “inactive”.
`CN(C)c1ccc(NC(N)=S)cc1` was tested, and the Potency was “inactive”.
For `CCCCOc1ccc(C2(C)NC(=O)NC2=O)cc1` (stereo not given), the Potency was inconclusive: 79.4 µM [inhibitor, partial curve].
`CCOC(=O)CC1=NN(c2ccccc2)C(=O)/C1=C\c1ccc(OC)cc1OC` was tested, and the Potency was inconclusive: 20 µM [inhibitor, full curve, poor fit].
`Cc1nc(N)sc1-c1csc(Nc2cccc(C(=O)O)c2)n1` was tested, and the activity change, negative = inhibition was inactive: -12.8% [at 11.6 µM].
In the case of `CN(c1ccccc1)S(=O)(=O)c1ccc2c(c1)oc(=O)n2C`, the Potency is reported as “inactive”.
For `COCCCn1c(=O)c2ccccc2n(Cc2cc(C(=O)OC)ccc2OC)c1=O`, the Potency was “inactive”.
In the case of `CN(C)c1ccc(C=c2c3ccccc3n3c2c2ccccc2[n+]3C)cc1`, the Potency is reported as active: 10 µM.
For `COc1cc(CNc2ccc(O)cc2)cc(Br)c1OCc1ccccc1F`, the Potency was inconclusive: 25.1 µM [inhibitor, single point].
In the case of `S=c1[nH]nc(-c2n[nH]c3c2CCC3)n1/N=C/C=C/c1ccco1`, the Potency is reported as inconclusive: 56.2 µM [inhibitor, partial curve].
With `Nc1cc2c(cc1[N+](=O)[O-])-c1ccccc1C2=NO` the Potency was inconclusive: 20 µM [inhibitor, full curve].
With `C=CC(=O)Nc1ccc(Nc2ccnc(Nc3ccc(N4CCN(C)CC4)cc3)n2)cc1` the Potency was active: 50.1 µM.
For `CC(/C=N/NC(=O)c1cc(C2CC2)[nH]n1)=C\c1ccccc1`, the Potency was “inactive”.
`O=c1c(-c2nn[nH]n2)coc2ccc(Cl)cc12` was tested, and the Potency was inconclusive: 39.8 µM [inhibitor, single point].
`CCOc1ccc(Nc2nc(N3CCOCC3)nc(N3CCOCC3)n2)cc1` was tested, and the Potency was inconclusive: 11.2 µM [inhibitor, full curve, poor fit].
With `Nc1nonc1-c1nc2ccccc2n1CC(=O)Nc1ccccc1` the Potency was “inactive”.
